Measured values taken from publication doi:10.1101/2025.11.17.688803.
No constants are given. Whether binding was seen depends on the method and setting. Binding seen in cells or lysates may run through a third protein. Some entries that bind do so weakly or less than the wild type. For part of these data: Sequences can lack the tags named with a protein.

T1: endogenous TAK1 of mouse embryonic fibroblasts (mouse (endogenous in MEFs)) (UniProt Q62073)
T1 sequence: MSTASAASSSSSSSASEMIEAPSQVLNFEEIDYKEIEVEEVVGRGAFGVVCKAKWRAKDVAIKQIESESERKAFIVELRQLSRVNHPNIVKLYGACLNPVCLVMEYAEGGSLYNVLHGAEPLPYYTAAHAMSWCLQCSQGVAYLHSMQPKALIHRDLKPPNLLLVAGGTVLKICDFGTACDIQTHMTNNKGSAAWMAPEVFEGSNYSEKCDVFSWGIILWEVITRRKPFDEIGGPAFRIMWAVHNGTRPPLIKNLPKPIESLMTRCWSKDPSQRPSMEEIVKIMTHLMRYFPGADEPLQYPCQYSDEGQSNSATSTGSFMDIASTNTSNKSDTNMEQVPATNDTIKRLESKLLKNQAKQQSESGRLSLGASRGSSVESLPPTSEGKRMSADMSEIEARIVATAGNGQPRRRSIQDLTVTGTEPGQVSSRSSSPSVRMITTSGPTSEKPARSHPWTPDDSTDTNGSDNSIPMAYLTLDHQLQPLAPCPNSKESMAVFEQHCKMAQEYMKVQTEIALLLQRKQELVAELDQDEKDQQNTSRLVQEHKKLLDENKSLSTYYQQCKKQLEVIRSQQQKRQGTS

T2: HA-tagged TAK1 (transforming growth factor-beta-activated kinase 1), wild type (UniProt O43318)
T2 sequence: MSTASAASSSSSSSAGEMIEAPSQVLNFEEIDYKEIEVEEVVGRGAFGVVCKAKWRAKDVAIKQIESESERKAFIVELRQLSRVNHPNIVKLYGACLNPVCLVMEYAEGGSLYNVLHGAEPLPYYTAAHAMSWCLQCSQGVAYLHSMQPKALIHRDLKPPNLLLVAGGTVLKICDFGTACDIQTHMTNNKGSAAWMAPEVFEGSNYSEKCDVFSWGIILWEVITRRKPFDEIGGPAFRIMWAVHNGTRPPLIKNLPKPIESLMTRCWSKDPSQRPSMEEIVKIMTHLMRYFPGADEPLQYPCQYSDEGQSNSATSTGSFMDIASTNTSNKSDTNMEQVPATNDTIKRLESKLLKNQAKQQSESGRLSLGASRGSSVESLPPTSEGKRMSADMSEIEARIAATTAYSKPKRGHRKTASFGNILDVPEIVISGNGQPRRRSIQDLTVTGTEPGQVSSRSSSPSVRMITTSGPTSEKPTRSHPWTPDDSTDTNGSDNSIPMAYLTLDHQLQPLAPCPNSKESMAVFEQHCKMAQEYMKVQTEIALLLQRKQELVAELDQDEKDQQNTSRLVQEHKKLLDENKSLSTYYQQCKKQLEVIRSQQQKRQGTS


Legend:
[1] = molecular target: T1, endogenous TAK1 of mouse embryonic fibroblasts (mouse (endogenous in MEFs)); assay: co-IP
[2] = molecular target: T2, HA-tagged TAK1 (transforming growth factor-beta-activated kinase 1), wild type; assay: co-IP

Binder | binding [1] | binding [2]
endogenous TAB2 of mouse embryonic fibroblasts (protein, UniProt Q99K90 1-693) MAQGSHQIDFQVLHDLRQKFPEVPEVVVSRCMLQNNNNLDACCAVLSQESTRYLYGEGDLNFSDESGISGLRNHMTSLNLDLQSQNVYHHGREGSRVNGSRTLTHSVSDGQLHGGQSNNELFQQEPQTAPAQVPQGFNVFGMPSTSGASNSTPHLGFHLGSKGTSNLSQQTPRFNPIMVTLAPNIQTGRSTPTSLHIHGVPPPVLNSPQGNSIYIRPYITTPSGTARQTQQHSGWVSQFNPMNPQQAYQPSQPGPWTTYPASNPLPHTSTQQPNQQGHQTSHVYMPISSPTTPQPPTIHSSGSSQSSAHSQYNIQNISTGPRKNQIEIKLEPPQRNSSSKLRSSGPRTASTSSLVNSQTLNRNQPTVYIAASPPNTDEMISRSQPKVYISANATAGDEQGMRNQPTLFISTNSGPSAASRNMSGQVSMGPAFIHHHPPKSRVLGGNSATSPRVVVTQPNTKYTFKITVSPNKPPAVSPGVVSPTFELTNLLNHPDHYVETENIQHLTDPALAHVDRISEARKLSMGSDDAAYTQALLVHQKARMERLQRELEMQKKKLDKLKSEVNEMENNLTRRRLKRSNSISQIPSLEEMQQLRSCNRQLQIDIDCLTKEIDLFQARGPHFNPSAIHNFYDNIGFVGPVPPKPKDQRSTIKAPKTQDAEDEEGAQWNCTACTFLNHPALIRCEQCEMPRHF | binds | 
endogenous TAB3 of mouse embryonic fibroblasts (protein, UniProt Q571K4 1-716) MAQNSPQLDIQVLHDLRQRFPEIPEGVVSQCMLQNNNNLEACCRALSQESSKYLYMEYHSPEDNRMNRNRLLHINLGIHSPSSYHPGDGAHLNGGRTLVHSSSDGHIDPQHTAGKQLICLVQEPHSAPAVVAATPNYNPFFMNEQNRSAATPPSQPPQQPSSMQTGMNPSAMQGPSPPPPPPSYMHIPRYSTNPITVTVSQNLPSGQTVPRALQILPQIPSNLYGSPGSIFIRQTSQSSSGRQTPQNAPWQSSPQGPVPHYSQRPLPVYPHQQNYQPSQYSPKQQQIPQSVYHSPPPSQCPSPFSSPQHQVQPPQLGHPSSHVFMPPSPSTTPPHLYQQGPPSYQKPGSHSVAYLPYTASSLPKGSMKKIEITVEPSQRPGTAITRSPSPISNQPSPRNQHSLYTATTPPSSSPSRGISSQPKPPFSVNPVYITYTQPTGPSCAPSPSPRVIPNPTTVFKITVGRATTENLLNLVDQEERSAAPEPIQPISVIPGSGGEKGNHKYQRSSSSGSDDYAYTQALLLHQRARMERLAKQLKLEKEELERLKAEVNSMEHDLMQRRLRRVSCTTAIPTPEEMTRLRSTNRQLQINVDCTLKEVDLLQSRGNFDPKAINNFYDHIEPGPVVPPKPSKKDSSDSCAIERKARRISVTSKAPVDIHDAQAAAADEHLSICKQSARTQPRDEDYEGAPWNCDSCTFLNHPALNRCEQCEMPRYT | binds | 
FLAG-tagged TAB2 (TAK1-binding protein 2) (protein, UniProt Q9NYJ8 1-693) MAQGSHQIDFQVLHDLRQKFPEVPEVVVSRCMLQNNNNLDACCAVLSQESTRYLYGEGDLNFSDDSGISGLRNHMTSLNLDLQSQNIYHHGREGSRMNGSRTLTHSISDGQLQGGQSNSELFQQEPQTAPAQVPQGFNVFGMSSSSGASNSAPHLGFHLGSKGTSSLSQQTPRFNPIMVTLAPNIQTGRNTPTSLHIHGVPPPVLNSPQGNSIYIRPYITTPGGTTRQTQQHSGWVSQFNPMNPQQVYQPSQPGPWTTCPASNPLSHTSSQQPNQQGHQTSHVYMPISSPTTSQPPTIHSSGSSQSSAHSQYNIQNISTGPRKNQIEIKLEPPQRNNSSKLRSSGPRTSSTSSSVNSQTLNRNQPTVYIAASPPNTDELMSRSQPKVYISANAATGDEQVMRNQPTLFISTNSGASAASRNMSGQVSMGPAFIHHHPPKSRAIGNNSATSPRVVVTQPNTKYTFKITVSPNKPPAVSPGVVSPTFELTNLLNHPDHYVETENIQHLTDPTLAHVDRISETRKLSMGSDDAAYTQALLVHQKARMERLQRELEIQKKKLDKLKSEVNEMENNLTRRRLKRSNSISQIPSLEEMQQLRSCNRQLQIDIDCLTKEIDLFQARGPHFNPSAIHNFYDNIGFVGPVPPKPKDQRSIIKTPKTQDTEDDEGAQWNCTACTFLNHPALIRCEQCEMPRHF |  | binds
